Results are given in words; binding and its absence hold for the method and conditions named.
Tests used:
Experiment in all cases: condition: ARPCA up to 2000 μM (as described for FGF8b); SPR; BIAcore X-100; FGF8b (20 μg/ml in 10 mM sodium acetate, pH 6.0) or other FGFs (10 mM sodium acetate at optimal pH) immobilised on a CM5 sensor chip by EDC/NHS; peptide injected (ARPCA 8 μM to 2000 μM), 4 min at 30 μl/min, 10 min dissociation, in HBS; equilibrium values fitted with the Langmuir equation for monovalent binding; both purified
FGF3 = molecular target: T1, FGF3 (UniProt P11487)
T1 sequence: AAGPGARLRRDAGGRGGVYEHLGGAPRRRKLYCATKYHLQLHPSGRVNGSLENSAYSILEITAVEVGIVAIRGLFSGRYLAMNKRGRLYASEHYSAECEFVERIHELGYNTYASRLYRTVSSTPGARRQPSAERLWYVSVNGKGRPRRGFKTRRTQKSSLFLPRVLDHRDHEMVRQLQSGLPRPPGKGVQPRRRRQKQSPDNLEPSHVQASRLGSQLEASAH

FGF6 = molecular target: T2, FGF6 (UniProt P10767)
T2 sequence: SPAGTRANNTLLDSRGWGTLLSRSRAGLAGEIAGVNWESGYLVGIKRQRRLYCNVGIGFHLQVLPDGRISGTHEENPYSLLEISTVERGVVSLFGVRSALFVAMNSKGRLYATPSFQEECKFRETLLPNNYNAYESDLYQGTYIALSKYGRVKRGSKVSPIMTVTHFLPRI

FGF4 = molecular target: T3, FGF4 (UniProt P08620)
T3 sequence: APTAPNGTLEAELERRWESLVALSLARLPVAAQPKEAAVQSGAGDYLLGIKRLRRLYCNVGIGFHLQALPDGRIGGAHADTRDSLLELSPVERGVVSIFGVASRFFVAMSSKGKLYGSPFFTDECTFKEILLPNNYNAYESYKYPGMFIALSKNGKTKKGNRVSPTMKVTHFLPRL

FGF10 = molecular target: T4, FGF10 (UniProt O15520)
T4 sequence: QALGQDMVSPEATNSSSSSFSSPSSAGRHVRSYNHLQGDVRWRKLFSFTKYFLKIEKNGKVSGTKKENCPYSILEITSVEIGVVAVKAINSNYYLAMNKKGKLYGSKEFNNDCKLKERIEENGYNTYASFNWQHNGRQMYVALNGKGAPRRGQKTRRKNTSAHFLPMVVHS

Measured: binding

ARPCA (N-terminal acetyl; C-terminal amide) [Ac-ARPCA-NH2, acetylated pentapeptide corresponding to PTX3(100-104)]
no binding: all assays above

Reference: publication PMC4537050, “A long pentraxin-3-derived pentapeptide for the therapy of FGF8b-driven steroid hormone-regulated cancers” (Oncotarget, 2015)
